Test results as given in PubChem BioAssay AID330 (DTP/NCI, 2004).
The list does not hold the whole screen: it gathers tests that were run many times, whatever their T/C, doses with no T/C, and many T/C values between a quarter and a half above the control. Other doses and runs of a compound stand elsewhere. T/C gives the treated animals as a percentage of the vehicle group. Some doses have a count of surviving animals in place of a T/C: the source holds a T/C of zero for them, seemingly a mark for toxic or unscored doses. Some doses without a T/C left all or most animals alive at the check, yet need not have been tolerated: the source hardly ever lists a survival T/C far under the control, and the zero likely stands for such cases as well. Survivors were counted at the toxicity check, usually on the fifth day, unless a day is given; later deaths do not show. Schedules are NCI's codes, read here as Q, the interval in days (D) or hours (H), X, the number of doses. Where survival is the endpoint, this PubChem deposit counts one and a half times the control or more as active, and values a quarter to a half above the control carry no call in these data; other NCI protocols may use other cut-offs. Some T/C values carry the count of animals alive at the toxicity check (mostly the fifth day); without a count, all were alive then.

System: P388 leukemia ip, CD2F1 mice, survival T/C
Assay: NCI In Vivo Anticancer Drug Screen. Data for tumor model P388 Leukemia (intraperitoneal) in CD2F1 (CDF1) mice
Conditions: T/C endpoint: median survival time, higher T/C = longer survival
[1] = dose: 200.0 mg/kg/injection, schedule: Q01DX001 (ip), vehicle: saline
[2] = dose: 400.0 mg/kg/injection, schedule: Q01DX001 (ip), vehicle: saline
[3] = dose: 200.0 mg/kg/injection, schedule: Q01DX005 (ip), vehicle: saline with Tween-80
[4] = dose: 200.0 mg/kg/injection, schedule: Q04DX003 (ip), vehicle: saline
[5] = dose: 200.0 mg/kg/injection, schedule: Q01DX009 (ip), vehicle: saline with Tween-80
[6] = dose: 50.0 mg/kg/injection, schedule: Q01DX005 (ip), vehicle: Klucel (hydroxypropylcellulose) (HPC)
[7] = dose: 100.0 mg/kg/injection, schedule: Q01DX005 (ip), vehicle: Klucel (hydroxypropylcellulose) (HPC)
[8] = dose: 200.0 mg/kg/injection, schedule: Q01DX005 (ip), vehicle: Klucel (hydroxypropylcellulose) (HPC)
[9] = dose: 240.0 mg/kg/injection, schedule: Q01DX005 (ip), vehicle: saline with Tween-80
[10] = dose: 60.0 mg/kg/injection, schedule: Q01DX005 (ip), vehicle: Klucel (hydroxypropylcellulose) (HPC)
[11] = dose: 120.0 mg/kg/injection, schedule: Q01DX005 (ip), vehicle: Klucel (hydroxypropylcellulose) (HPC)
[12] = dose: 100.0 mg/kg/injection, schedule: Q01DX005 (ip), vehicle: saline with Tween-80

With `CC1Cc2ccccc2[N+]1(C)C` (stereo not drawn) the survivor count (dose: 100.0 mg/kg/injection, schedule: Q01DX001 (ip), vehicle: saline) was 2 of 6, the survivor count [1] was 0 of 6 and the survivor count [2] was 0 of 6.

`O=C(O)/C=C/c1ccc(O)c(O)c1` was tested, and the survivor count (dose: 600.0 mg/kg/injection, schedule: Q01DX009 (ip), vehicle: saline) was 3 of 6.

For `O=C(CCl)N1CCN(C/C=C/c2ccccc2)CC1`, the survivor count (dose: 240.0 mg/kg/injection, schedule: Q01DX005 (ip), vehicle: saline) was 3 of 6.

For `C=COC(=O)N(C)C`, the T/C (dose: 100.0 mg/kg/injection, schedule: Q01DX009 (ip), vehicle: saline) was 127 % of control [5 of 6 alive], the T/C (dose: 200.0 mg/kg/injection, schedule: Q01DX009 (ip), vehicle: saline) was 137 % of control [5 of 6 alive] and the survivor count (dose: 400.0 mg/kg/injection, schedule: Q01DX009 (ip), vehicle: saline) was 0 of 6.

`c1ccc2c(c1)[nH]c1c2c[n+]2c3c(cccc13)CCC2` was tested, and the T/C (dose: 12.5 mg/kg/injection, schedule: Q01DX009 (ip), vehicle: saline) was 130 % of control.

With `CCc1nc(N)nc(N)c1-c1ccc(Cl)c(NN=NC)c1` the survivor count [3] was 0 of 6.

In the case of `CCC(C)C1=NCCCN1` (stereo not drawn), the survivor count [1] is reported as 2 of 6 and the survivor count [2] is reported as 0 of 6.

With `O=CC1C(=O)NC(=O)NC1=O` the survivor count [4] was 3 of 6.

In the case of `COC1/C=C/OC2(C)Oc3c(C)c(O)c4c(O)c(c(/C=N/N5CC(C)N(Cc6ccccc6)C(C)C5)c(O)c4c3C2=O)NC(=O)C(C)=C/C=C/C(C)C(O)C(C)C(O)C(C)C(OC(C)=O)C1C` (stereo not drawn), the survivor count [5] is reported as 3 of 6.

With `CCC(C)N(CCNc1cc(OC)cc2cccnc12)CC(C)C` (stereo not drawn) the survivor count (dose: 100.0 mg/kg/injection, schedule: Q01DX005 (ip), vehicle: saline) was 4 of 5 and the survivor count (dose: 200.0 mg/kg/injection, schedule: Q01DX005 (ip), vehicle: saline) was 0 of 5.

`CCC1(O)CC(c2ccccc2)N(C)C(c2ccccc2)C1` (stereo not drawn) was tested, and the survivor count [3] was 0 of 6.

For `O=C1c2cccc3c2C2(O)c4c1cccc4C(=O)c1cccc(c12)C3=O`, the survivor count [5] was 2 of 6.

In the case of `O=S(=O)(O)C1=CC(=N\Cl)/C=CC/1=N/Cl`, the T/C (dose: 100.0 mg/kg/injection, schedule: Q01DX005 (ip), vehicle: saline + Tween-80 + alcohol) is reported as 127 % of control, the T/C (dose: 200.0 mg/kg/injection, schedule: Q01DX005 (ip), vehicle: saline + Tween-80 + alcohol) is reported as 144 % of control [5 of 6 alive] and the survivor count (dose: 400.0 mg/kg/injection, schedule: Q01DX005 (ip), vehicle: saline + Tween-80 + alcohol) is reported as 0 of 6.

In the case of `NS(=O)(=O)c1ccc(NC(=O)CCl)cc1`, the survivor count (dose: 100.0 mg/kg/injection, schedule: Q01DX009 (ip), vehicle: Klucel (hydroxypropylcellulose) (HPC)) is reported as 2 of 6 and the survivor count (dose: 200.0 mg/kg/injection, schedule: Q01DX009 (ip), vehicle: Klucel (hydroxypropylcellulose) (HPC)) is reported as 0 of 6.

`CCN(CC)CCNc1ccc(N)c2sc3ccccc3c(=O)c12` was tested, and the T/C [5] was 125 % of control [5 of 6 alive], the survivor count [5] was 4 of 6 and the survivor count (dose: 400.0 mg/kg/injection, schedule: Q01DX009 (ip), vehicle: saline with Tween-80) was 0 of 6.

`CSc1nc2c(nc(N)n2C2OC(COC(C)=O)C(OC(C)=O)C(OC(C)=O)C2OC(C)=O)c(=O)n1C` (stereo not drawn) was tested, and the survivor count (dose: 60.0 mg/kg/injection, schedule: Q01DX005 (ip), vehicle: saline with Tween-80) was 4 of 6.

In the case of `C(#Cc1c2ccccc2c(C#Cc2ccccc2)c2c(-c3ccccc3)cccc12)c1ccccc1`, the survivor count [3] is reported as 5 of 5.

With `CN=C(NC#N)NCCSCc1ccc2ccccc2n1` the survivor count (dose: 200.0 mg/kg/injection, schedule: Q01DX005 (ip), vehicle: distilled water + Tween-80 + alcohol) was 0 of 5.

In the case of `CC(C)=CC[P+](CCCCCC[P+](CC=C(C)C)(c1ccccc1)c1ccccc1)(c1ccccc1)c1ccccc1`, the survivor count (dose: 6.25 mg/kg/injection, schedule: Q01DX005 (ip), vehicle: Klucel (hydroxypropylcellulose) (HPC)) is reported as 4 of 6, the survivor count (dose: 12.5 mg/kg/injection, schedule: Q01DX005 (ip), vehicle: Klucel (hydroxypropylcellulose) (HPC)) is reported as 0 of 6 and the survivor count (dose: 25.0 mg/kg/injection, schedule: Q01DX005 (ip), vehicle: Klucel (hydroxypropylcellulose) (HPC)) is reported as 0 of 6. The survivor count [6] was 0 of 6, the survivor count [7] was 0 of 6 and the survivor count [8] was 0 of 6.

`CC(NCCN(C)C)C1CC2CCCCN2C1` (stereo not drawn) was tested, and the survivor count [9] was 1 of 6.

For `Cc1ccc2nc3ccccc3c(SCCCCCCSc3c4ccccc4nc4ccc(C)cc34)c2c1`, the survivor count [10] was 6 of 6, the survivor count [11] was 6 of 6 and the survivor count [9] was 6 of 6.

For `COC(=O)c1c(-c2cc(OC)c(OC)cc2[N+](=O)[O-])cn(C)c1C`, the survivor count [3] was 6 of 6.

In the case of `N#CNc1c2ccccc2nc2ccccc12`, the survivor count (dose: 120.0 mg/kg/injection, schedule: Q01DX005 (ip), vehicle: saline with Tween-80) is reported as 6 of 6 and the survivor count [9] is reported as 6 of 6.

With `C=C(C1OC2OC(C)(C)OC2C1OC)P(=O)(OC(C)C)OC(C)C` (stereo not drawn) the survivor count (dose: 400.0 mg/kg/injection, schedule: Q04DX002 (ip), vehicle: saline with Tween-80) was 0 of 6.

With `O=C(O)C1C(CCl)=C1CCl` the survivor count (dose: 240.0 mg/kg/injection, schedule: Q01DX005 (ip), vehicle: Klucel (hydroxypropylcellulose) (HPC)) was 3 of 6.

`N#CN(Cc1ccccc1)Cc1ccccc1.[Cl][Sn]([c]1ccccc1)([c]1ccccc1)[c]1ccccc1` was tested, and the survivor count (dose: 12.5 mg/kg/injection, schedule: Q01DX005 (ip), vehicle: saline with Tween-80) was 0 of 6, the survivor count (dose: 50.0 mg/kg/injection, schedule: Q01DX005 (ip), vehicle: saline with Tween-80) was 0 of 6 and the survivor count [12] was 0 of 6. For the same molecule, the survivor count [3] was 0 of 6.

For `CC1CCC(NC(=O)N(CCCl)N=O)CC1` (stereo not drawn), the T/C (dose: 1.25 mg/kg/injection, schedule: Q04DX003 (ip), vehicle: other) was 126 % of control, the T/C (dose: 1.88 mg/kg/injection, schedule: Q04DX003 (ip), vehicle: other) was 144 % of control and the T/C (dose: 2.0 mg/kg/injection, schedule: Q01DX009 (ip), vehicle: saline sonified) was 137 % of control. The T/C (dose: 2.5 mg/kg/injection, schedule: Q04DX003 (ip), vehicle: other) was 148 % of control, the survivor count (dose: 10.0 mg/kg/injection, schedule: Q04DX003 (ip), vehicle: other) was 4 of 6 and the T/C (dose: 15.0 mg/kg/injection, schedule: Q04DX003 (ip), vehicle: saline with Tween-80) was 129 % of control. For the same molecule, the survivor count (dose: 20.0 mg/kg/injection, schedule: Q04DX003 (ip), vehicle: other) was 2 of 6 and the survivor count (dose: 30.0 mg/kg/injection, schedule: Q04DX003 (ip), vehicle: other) was 0 of 6.

For `CCC(C)/C(=C\C#N)NCCCCCCN/C(=C/C#N)C(C)CC` (stereo not drawn), the survivor count [10] was 6 of 6 and the survivor count [11] was 6 of 6.

In the case of `CCN(CC)CCNc1ccc(COC(N)=O)c2sc3ccccc3c(=O)c12`, the T/C (dose: 400.0 mg/kg/injection, schedule: Q04DX003 (ip), vehicle: saline) is reported as 142 % of control.

`CN(Cc1ccc(Nc2ccccc2)cc1)C1CCCCC1` was tested, and the survivor count (dose: 400.0 mg/kg/injection, schedule: Q01DX009 (ip), vehicle: saline + Tween-80 + alcohol) was 5 of 6.

`Cc1cc2nc(C)nn2c(C)n1` was tested, and the survivor count [4] was 6 of 6.

For `Cc1ccc[n+](Cc2ccccc2Cl)c1`, the survivor count [6] was 0 of 6, the survivor count [7] was 0 of 6 and the survivor count [8] was 0 of 6.

With `COC1/C=C/OC2(C)Oc3c(C)c(O)c4c(O)c(c(CNCc5ccccc5)c(O)c4c3C2=O)NC(=O)/C(C)=C\C=C\C(C)C(O)C(C)C(O)C(C)C(OC(C)=O)C1C` (stereo not drawn) the survivor count (dose: 200.0 mg/kg/injection, schedule: Q01DX009 (ip), vehicle: other) was 6 of 6.

In the case of `CCCCOc1ccc(Nc2c3ccccc3nc3ccccc23)cc1`, the T/C (dose: 50.0 mg/kg/injection, schedule: Q01DX009 (ip), vehicle: saline with Tween-80) is reported as 136 % of control and the survivor count (dose: 100.0 mg/kg/injection, schedule: Q01DX009 (ip), vehicle: saline with Tween-80) is reported as 0 of 6.

For `CCSC(C(OC(C)=O)C(OC(C)=O)C(OC(C)=O)C(COC(C)=O)OC(C)=O)n1cnc2c(=S)nc[nH]c21` (stereo not drawn), the survivor count [12] was 6 of 6.
